Values from PubChem BioAssay AID652272 (Drosophila RNAi Screening Center, 2013)
In all, the deposit lists about 21,000 reagents; below is a random part of those that have a named target and a result. Over the whole deposit, 503 (2.4%) are marked active. 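Raw plate light values, not normalised; calls rest on replicate z-scores that were not deposited; hits include reporter decreases as well as increases.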 A number with no mark means an inactive call. Not stated in the record: the amount of reagent, the time to read-out.

Test: 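Genome-wide knock-down search for components of Hedgehog signalling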 (primary screen)
Cell system: Drosophila clone 8 (Cl8) cells
Reagents: long dsRNA against Drosophila genes
Read-out: 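Firefly light from a Hedgehog-responsive ptc promoter reporter and Renilla reference light, both read on a plate reader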
Reading the numbers: firefly Hh reporter signal: higher = more ptc reporter light; Renilla reference signal: higher = more Renilla control light
Active means: 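Called a hit if the two-replicate mean z-score lies below -2 or above +3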
Calls: active = hit: reporter lowered or raised; inactive = not a hit

target | DRSC id | firefly Hh reporter signal, replicate 1 | firefly Hh reporter signal, replicate 2 | firefly Hh reporter signal, replicate 3 | Renilla reference signal, replicate 1 | Renilla reference signal, replicate 2
CG3581 (GeneID 42315) | DRSC15499 | 4.99e5 | 72412 | – | 23447 | 1796
CG9514 (GeneID 32418) | DRSC20190 | 74626 | 1.97e5 | – | 2609 | 8609
CG9514 (GeneID 32418) | DRSC20191 | 81753 | 2.14e5 | – | 2668 | 9328
Shc (GeneID 44052) | DRSC11284 | 31088 | 43194 | 49868 | 3229 | 3332
CG12851 (GeneID 37993) | DRSC04131 | 79973 | 70923 | – | 1636 | 5492
CG12360 (retired record) (GeneID 41603) | DRSC14505 | 1.25e5 | 93744 | – | 4139 | 2056
cag (GeneID 36157) | DRSC07587 | 95459 | 54761 | – | 1821 | 1509
spz6 (GeneID 37956) | DRSC04533 | 1.23e5 | 84912 | – | 4514 | 2747
AstA (GeneID 42947) | DRSC14634 | 7.95e5 | 1.25e5 | – | 37943 | 2587
FAM21 (GeneID 37331) | DRSC06623 | 88936 | 81659 | – | 4644 | 3746
CG18764 (GeneID 59239) | DRSC15391 | 98160 | 1.25e5 | – | 2406 | 6195
RpL17 (GeneID 31613) | DRSC18293 | 22452 (active) | 16132 | – | 1393 | 1008
CG8840 (GeneID 33557) | DRSC00713 | 1.03e5 | 67290 | – | 2368 | 6209
CG34436 (GeneID 5740743) | DRSC15164 | 96576 | 1.21e5 | – | 3338 | 3520
mRpL30 (GeneID 31398) | DRSC18416 | 72848 | 2.06e5 | – | 2578 | 8454
Blimp-1 (GeneID 38638) | DRSC10496 | 62752 | 54728 | – | 5664 | 4363
CG17839 (GeneID 39616) | DRSC10290 | 77168 | – | – | 2625 | 2165
CG17839 (GeneID 39616) | DRSC10291 | 69719 | – | – | 2118 | 2064
CG34301 (GeneID 5740866) | DRSC12704 | 1.95e5 | – | – | 4002 | –
TwdlN (GeneID 43207) | DRSC15813 | 76211 | 52624 | – | 1648 | 1636
CROT (GeneID 43332) | DRSC14518 | 63291 | 56891 | – | 1482 | 1572
CROT (GeneID 43332) | DRSC14519 | 87548 | 77515 | – | 3268 | 2987
MESR4 (GeneID 36986) | DRSC06901 | 61527 (active) | 47653 | – | 1237 | 2181
OSCP1 (GeneID 36300) | DRSC06304 | 85848 | 36034 | – | 1680 | 2676
CG13449 (GeneID 39695) | DRSC09996 | 1.30e5 | – | – | 7617 | 4134
CG7320 (GeneID 40010) | DRSC10810 | 1.53e5 | – | – | 2003 | 4424
wdn (GeneID 43398) | DRSC17095 | 94179 | 1.02e5 | – | 1528 | 1494
Cpr64Ad (GeneID 38511) | DRSC08284 | 1.31e5 | 74581 | – | 3900 | 4293
CG32276 (GeneID 251645) | DRSC08027 | 1.24e5 | 2.66e5 | – | 3975 | 10310
eIF4G2 (GeneID 42819) | DRSC14207 | 1.42e5 | 74925 | – | 5200 | 2867
Cib2 (GeneID 37363) | DRSC04535 | 1.05e5 | 42685 | – | 3011 | 3881
CG13043 (GeneID 39796) | DRSC09924 | 1.59e5 | – | – | 2685 | 4200
RpS5a (GeneID 32700) | DRSC20282 | 42221 (active) | 41676 | – | 2155 | 2196
CG13807 (GeneID 38290) | DRSC08342 | 77352 | 39045 | – | 2757 | 3388
CG14075 (GeneID 40071) | DRSC10080 | 80976 | 1.28e5 | – | 2614 | 3562
trsn (GeneID 36110) | DRSC06078 | 87117 | 32999 | – | 2560 | 3689
CG1307 (GeneID 40814) | DRSC12492 | 1.20e5 | 85776 | – | 4393 | 3506
rho-6 (GeneID 34640) | DRSC02588 | 1.11e5 | 69924 | – | 3364 | 6608
Eglp2 (GeneID 37737) | DRSC04294 | 93516 | 54453 | – | 3572 | 2180
ATPsynCF6L (GeneID 38592) | DRSC08232 | 78244 | 65642 | – | 7299 | 4897
PCNA2 (GeneID 35257) | DRSC02030 | 88312 | 65612 | – | 2209 | 5236
CG17065 (GeneID 33026) | DRSC20544 | 68180 | 2.51e5 | – | 1622 | 11012
CG43339 (GeneID 8674062) | DRSC02466 | 56626 | 51664 | – | 2802 | 2082
Kpc2 (GeneID 37261) | DRSC07635 | 1.21e5 | 59723 | – | 3341 | 4378
CG8500 (GeneID 41203) | DRSC16434 | 61591 | 84182 | – | 2498 | 3312
CG1317 (GeneID 38300) | DRSC08305 | 98468 | 80765 | – | 4816 | 2954
CG31882 (GeneID 319000) | DRSC01084 | 6.56e5 | 2.40e5 | – | 31664 | 9952
eIF3b (GeneID 36981) | DRSC06900 | 50344 | 28929 | – | 1846 | 2984
CG31544 (retired record) (GeneID 318792) | DRSC12466 | 1.58e5 | – | – | 3015 | –
Mct1 (GeneID 31198) | DRSC18681 | 82521 | 1.76e5 | – | 3328 | 6897
CPT2 (GeneID 38355) | DRSC08553 | 1.86e5 | 95808 | – | 6821 | 1315
CG31441 (GeneID 326139) | DRSC15723 | 73930 | 94425 | – | 2224 | 2397
CG11170 (GeneID 37533) | DRSC04090 | 65217 | 75063 | – | 2803 | 2851
BCL7-like (GeneID 31890) | DRSC17729 | 1.07e5 | 90533 | – | 2695 | 2336
CG1801 (GeneID 33104) | DRSC20556 | 91996 | 2.14e5 | – | 2605 | 9104
Dip-B (GeneID 48450) | DRSC16466 | 1.02e5 | 78048 | – | 4173 | 3090
eIF3k (GeneID 37475) | DRSC04056 | 1.40e5 (active) | 1.10e5 | – | 3716 | 3005

6 of these entries in another layout:
CG43339 (GeneID 8674062) [DRSC02466]: firefly Hh reporter signal, replicate 1 = 56626; firefly Hh reporter signal, replicate 2 = 51664; Renilla reference signal, replicate 1 = 2802; Renilla reference signal, replicate 2 = 2082
Kpc2 (GeneID 37261) [DRSC07635]: firefly Hh reporter signal, replicate 1 = 1.21e5; firefly Hh reporter signal, replicate 2 = 59723; Renilla reference signal, replicate 1 = 3341; Renilla reference signal, replicate 2 = 4378
CG8500 (GeneID 41203) [DRSC16434]: firefly Hh reporter signal, replicate 1 = 61591; firefly Hh reporter signal, replicate 2 = 84182; Renilla reference signal, replicate 1 = 2498; Renilla reference signal, replicate 2 = 3312
CG1317 (GeneID 38300) [DRSC08305]: firefly Hh reporter signal, replicate 1 = 98468; firefly Hh reporter signal, replicate 2 = 80765; Renilla reference signal, replicate 1 = 4816; Renilla reference signal, replicate 2 = 2954
CG31882 (GeneID 319000) [DRSC01084]: firefly Hh reporter signal, replicate 1 = 6.56e5; firefly Hh reporter signal, replicate 2 = 2.40e5; Renilla reference signal, replicate 1 = 31664; Renilla reference signal, replicate 2 = 9952
eIF3b (GeneID 36981) [DRSC06900]: firefly Hh reporter signal, replicate 1 = 50344; firefly Hh reporter signal, replicate 2 = 28929; Renilla reference signal, replicate 1 = 1846; Renilla reference signal, replicate 2 = 2984
